This note sets out measurements from article doi:10.1101/2021.06.29.450327.

The chains behind the UniProt entries cited, without tags or fusion partners. Residues count along the entry.
UniProt P58022, residues 26-776: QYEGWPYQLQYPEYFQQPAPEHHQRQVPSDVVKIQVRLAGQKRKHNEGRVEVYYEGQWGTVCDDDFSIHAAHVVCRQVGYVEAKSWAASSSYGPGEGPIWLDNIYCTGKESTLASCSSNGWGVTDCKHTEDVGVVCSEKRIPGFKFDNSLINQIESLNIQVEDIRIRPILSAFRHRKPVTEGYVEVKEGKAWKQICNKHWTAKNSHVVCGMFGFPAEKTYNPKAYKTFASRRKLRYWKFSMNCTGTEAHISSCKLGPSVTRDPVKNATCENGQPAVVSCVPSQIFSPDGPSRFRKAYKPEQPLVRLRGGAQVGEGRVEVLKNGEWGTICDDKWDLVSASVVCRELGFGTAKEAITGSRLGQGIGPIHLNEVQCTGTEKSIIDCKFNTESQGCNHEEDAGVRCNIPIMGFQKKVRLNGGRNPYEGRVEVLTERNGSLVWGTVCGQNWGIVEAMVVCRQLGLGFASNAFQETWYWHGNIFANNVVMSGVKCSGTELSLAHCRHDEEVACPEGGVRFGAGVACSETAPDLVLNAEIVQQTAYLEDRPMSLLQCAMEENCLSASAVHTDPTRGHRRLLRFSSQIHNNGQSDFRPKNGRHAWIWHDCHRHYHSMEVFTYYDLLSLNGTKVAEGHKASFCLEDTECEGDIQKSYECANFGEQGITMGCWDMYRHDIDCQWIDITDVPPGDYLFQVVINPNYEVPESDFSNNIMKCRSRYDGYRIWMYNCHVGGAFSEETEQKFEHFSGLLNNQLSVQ
UniProt Q9Y4K0, residues 26-774: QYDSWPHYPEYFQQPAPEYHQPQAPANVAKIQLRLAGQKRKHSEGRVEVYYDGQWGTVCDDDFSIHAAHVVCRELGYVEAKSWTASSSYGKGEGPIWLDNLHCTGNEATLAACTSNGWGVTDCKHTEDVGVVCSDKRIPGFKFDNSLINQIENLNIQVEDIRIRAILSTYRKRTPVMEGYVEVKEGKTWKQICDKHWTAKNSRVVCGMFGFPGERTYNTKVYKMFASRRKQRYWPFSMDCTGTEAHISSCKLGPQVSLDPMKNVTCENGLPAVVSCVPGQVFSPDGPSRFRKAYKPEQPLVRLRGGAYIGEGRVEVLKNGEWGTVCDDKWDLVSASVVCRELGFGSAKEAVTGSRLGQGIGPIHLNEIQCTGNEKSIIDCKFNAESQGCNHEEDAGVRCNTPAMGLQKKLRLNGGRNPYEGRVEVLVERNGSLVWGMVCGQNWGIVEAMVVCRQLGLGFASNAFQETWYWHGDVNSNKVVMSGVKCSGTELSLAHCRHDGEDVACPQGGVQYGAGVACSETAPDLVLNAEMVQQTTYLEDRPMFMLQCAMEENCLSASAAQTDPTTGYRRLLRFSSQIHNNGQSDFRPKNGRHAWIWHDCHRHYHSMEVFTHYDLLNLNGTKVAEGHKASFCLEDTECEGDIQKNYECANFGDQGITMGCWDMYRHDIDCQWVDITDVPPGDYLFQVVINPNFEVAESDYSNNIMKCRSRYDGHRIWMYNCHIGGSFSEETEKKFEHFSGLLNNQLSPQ

These are yes or no findings as the source states them, for the method shown. In cells and extracts the contact can be indirect. Some entries that bind do so weakly or less than the wild type.

Assay [1] addresses Meflin (IP assay with Loxl2, Supplementary Fig. 6d) (UniProt Q6GU68). The assay is described as follows: co-IP.
For assay [2], the target named is T1, endogenous Meflin (human fibroblasts) (human (endogenous in fHDF/TERT166 and NHDF fibroblasts)) (UniProt O14498).
T1 sequence: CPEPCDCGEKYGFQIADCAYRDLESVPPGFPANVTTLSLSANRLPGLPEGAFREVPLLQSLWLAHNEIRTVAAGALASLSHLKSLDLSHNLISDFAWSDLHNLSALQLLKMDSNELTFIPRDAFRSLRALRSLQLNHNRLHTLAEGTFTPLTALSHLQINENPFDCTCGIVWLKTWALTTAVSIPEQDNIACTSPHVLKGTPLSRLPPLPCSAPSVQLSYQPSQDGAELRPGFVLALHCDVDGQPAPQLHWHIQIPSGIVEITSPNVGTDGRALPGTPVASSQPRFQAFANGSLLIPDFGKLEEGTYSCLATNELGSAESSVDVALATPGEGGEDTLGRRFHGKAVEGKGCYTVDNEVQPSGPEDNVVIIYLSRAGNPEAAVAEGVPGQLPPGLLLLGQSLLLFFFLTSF
The assay can be described thus: co-IP.

For the substance “lysyl oxidase like 2 (Loxl2) (from UniProt P58022 26-776) (enzyme)”, the binding result in assay [1] is “binds”.
With “endogenous Loxl2 (from UniProt Q9Y4K0 26-774) (enzyme)”, the binding result in assay [2] is “binds”.
